In patent publication US20140056811A1, “NEW CELL-PENETRATING PEPTIDES AND USES THEREOF” (COMPUGEN LTD., priority 2010, published 2014):
At least one peptide structure holds a part that was inferred or is arguable (an end, a ring closure or a residue). Peptide text beside a SMILES is read from it. * marks the point of attachment. 5FAM = O=C1OC2(c3ccc(O)cc3Oc3cc(O)ccc32)c2ccc(C(=O)*)cc21

Tested on: HeLa cells
Assay: Flow cytometry (FACS) quantification of cellular uptake of FAM labeled peptides
Type: cell-based
Conditions: FAM labeled peptide, 10 uM, 37° C., 1 hour, average of a number of experiments
Procedure: To determine the efficiency of peptide loading, HeLa cells (ATCC number CCL-2TM (Manassas, Va.) grown in DMEM medium with stabilized glutamine supplemented with 10% fetal calf serum (Biological Industries, Beit Haemek, Israel), were seeded at a density of 20,000 per well in 96 U shape-well plates (Nunc A/S, Roskilde, Denmark) in serum containing DMEM (D-Mem W/O Na Pyr, product number 41965039).
After 24 hours, the cells were washed twice with 300 μL serum free OptiMEM (Reduced Serum Media, buffered with HEPES and sodium bicarbonate and supplemented with hypoxanthine, thymidine, sodium pyruvate, L-glutamine, trace elements and growth factors) medium and incubated in 50 μL serum free OptiMEM, containing peptides in the appropriate concentrations for 1 hour at 37° C. Each condition was tested in triplicates. After incubation, cells were washed with serum free medium, detached by trypsinization for 5 minutes, suspended in ice-cold PBS (phosphate buffered saline) containing 0.1% (w/v) BSA (bovine serum albumin), and measured immediately by flow cytometry (BD FACS Calibur System, Becton Dickinson, Heidelberg, Germany). The fluorescence of approximately 10,000 vital cells was acquired and gated based on sideward and forward scatter. […]

For N=C(N)NCCC[C@H](NC(=O)c1ccc2c(c1)C(=O)OC21c2ccc(O)cc2Oc2cc(O)ccc21)C(=O)N[C@@H](CCCNC(=N)N)C(=O)N[C@@H](CCCNC(=N)N)C(=O)N[C@@H](Cc1c[nH]cn1)C(=O)N[C@@H](CCC(N)=O)C(=O)N[C@@H](CCCNC(=N)N)C(=O)N[C@@H](CCCCN)C(=O)N[C@@H](Cc1ccc(O)cc1)C(=O)N[C@@H](CCCNC(=N)N)C(=O)N[C@@H](CCCNC(=N)N)C(=O)N[C@@H](Cc1ccc(O)cc1)C(N)=O [S36, RRRHQRKYRRY] (5FAM-RRRHQRKYRRY-NH2), which “Geometric mean of FL1 intensity” value is on record?
Its value is 1070.41.

Which “Geometric mean of FL1 intensity” value does the source give for CC(C)C[C@H](NC(=O)[C@H](Cc1ccccc1)NC(=O)c1ccc2c(c1)C(=O)OC21c2ccc(O)cc2Oc2cc(O)ccc21)C(=O)N[C@@H](CCCNC(=N)N)C(=O)N[C@@H](CCCNC(=N)N)C(=O)N[C@@H](CCCNC(=N)N)C(=O)N[C@@H](CCCNC(=N)N)C(=O)N[C@@H](CCCNC(=N)N)C(=O)N[C@@H](Cc1ccccc1)C(=O)N[C@H](C(=O)N[C@@H](CCCNC(=N)N)C(=O)N[C@@H](CCC(N)=O)C(=O)N[C@H](C(N)=O)[C@@H](C)O)[C@@H](C)O [S40, FLRRRRRFTRQT] (5FAM-FLRRRRRFTRQT-NH2) here?
The value was 1030.9.
